Measured values from the supplement of paper PMC6411743.
± gives the standard deviation of the averaged measurements. Some of the results follow.

By UniProt entry, the sequences of proteins in these tests, tags left out. Where a name states a change or a piece, a line headed by the entry shows the natural chain unless it says otherwise.
UniProt O43707, whole entry: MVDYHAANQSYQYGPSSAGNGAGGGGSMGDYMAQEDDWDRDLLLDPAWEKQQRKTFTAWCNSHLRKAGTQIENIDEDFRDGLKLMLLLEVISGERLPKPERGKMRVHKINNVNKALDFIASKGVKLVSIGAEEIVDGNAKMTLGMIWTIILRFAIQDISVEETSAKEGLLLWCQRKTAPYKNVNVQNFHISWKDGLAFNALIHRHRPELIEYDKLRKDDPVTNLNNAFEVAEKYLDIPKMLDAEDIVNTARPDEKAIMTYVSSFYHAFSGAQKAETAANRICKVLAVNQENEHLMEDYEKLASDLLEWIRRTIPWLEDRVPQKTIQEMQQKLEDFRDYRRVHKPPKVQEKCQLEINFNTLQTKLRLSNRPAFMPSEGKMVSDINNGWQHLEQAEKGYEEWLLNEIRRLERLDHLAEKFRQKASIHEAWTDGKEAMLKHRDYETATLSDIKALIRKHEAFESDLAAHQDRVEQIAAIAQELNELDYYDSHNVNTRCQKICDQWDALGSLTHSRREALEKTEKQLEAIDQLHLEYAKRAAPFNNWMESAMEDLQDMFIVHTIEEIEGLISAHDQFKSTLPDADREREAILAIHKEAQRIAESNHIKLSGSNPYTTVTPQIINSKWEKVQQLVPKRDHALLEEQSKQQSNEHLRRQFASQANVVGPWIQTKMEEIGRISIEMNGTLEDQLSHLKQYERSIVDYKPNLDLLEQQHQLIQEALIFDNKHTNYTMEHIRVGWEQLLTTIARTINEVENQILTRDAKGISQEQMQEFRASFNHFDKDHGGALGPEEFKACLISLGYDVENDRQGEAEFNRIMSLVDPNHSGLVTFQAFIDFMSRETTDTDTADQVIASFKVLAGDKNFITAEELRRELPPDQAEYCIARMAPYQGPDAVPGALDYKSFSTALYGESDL
UniProt O43167: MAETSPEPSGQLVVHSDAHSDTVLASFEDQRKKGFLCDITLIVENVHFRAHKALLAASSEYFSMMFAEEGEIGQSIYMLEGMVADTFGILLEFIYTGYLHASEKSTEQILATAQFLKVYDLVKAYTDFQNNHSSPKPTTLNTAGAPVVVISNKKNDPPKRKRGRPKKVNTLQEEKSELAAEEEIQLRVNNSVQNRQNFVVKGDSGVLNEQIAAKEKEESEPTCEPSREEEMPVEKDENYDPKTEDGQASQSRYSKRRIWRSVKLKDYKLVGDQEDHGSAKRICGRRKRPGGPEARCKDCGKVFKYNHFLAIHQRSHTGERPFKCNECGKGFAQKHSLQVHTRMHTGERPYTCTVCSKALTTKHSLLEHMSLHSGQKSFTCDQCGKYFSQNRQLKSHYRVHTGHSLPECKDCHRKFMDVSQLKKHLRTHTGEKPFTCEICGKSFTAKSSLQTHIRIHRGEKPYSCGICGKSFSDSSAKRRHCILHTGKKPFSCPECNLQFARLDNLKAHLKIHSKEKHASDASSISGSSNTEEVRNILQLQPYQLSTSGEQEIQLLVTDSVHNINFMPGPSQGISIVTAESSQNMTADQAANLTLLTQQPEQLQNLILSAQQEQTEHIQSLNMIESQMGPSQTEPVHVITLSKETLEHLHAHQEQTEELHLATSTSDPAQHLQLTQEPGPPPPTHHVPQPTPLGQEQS
UniProt O60831: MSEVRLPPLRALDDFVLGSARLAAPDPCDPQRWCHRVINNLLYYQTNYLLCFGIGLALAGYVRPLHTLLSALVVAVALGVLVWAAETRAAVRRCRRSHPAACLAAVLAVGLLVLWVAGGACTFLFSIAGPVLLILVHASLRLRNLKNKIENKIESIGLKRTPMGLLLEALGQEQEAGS
UniProt O15379: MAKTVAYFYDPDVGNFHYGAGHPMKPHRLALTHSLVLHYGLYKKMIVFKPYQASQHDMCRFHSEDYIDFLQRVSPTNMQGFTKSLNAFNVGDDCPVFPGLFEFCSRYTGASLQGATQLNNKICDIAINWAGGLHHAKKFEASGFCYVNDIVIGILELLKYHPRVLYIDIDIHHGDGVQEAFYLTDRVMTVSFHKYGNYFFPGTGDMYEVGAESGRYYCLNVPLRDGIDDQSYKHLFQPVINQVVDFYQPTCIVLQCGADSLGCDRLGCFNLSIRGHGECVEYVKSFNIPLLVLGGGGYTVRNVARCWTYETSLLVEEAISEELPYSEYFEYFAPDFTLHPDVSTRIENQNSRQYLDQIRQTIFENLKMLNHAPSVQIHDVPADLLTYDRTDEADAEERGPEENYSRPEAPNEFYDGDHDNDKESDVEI
UniProt O00743: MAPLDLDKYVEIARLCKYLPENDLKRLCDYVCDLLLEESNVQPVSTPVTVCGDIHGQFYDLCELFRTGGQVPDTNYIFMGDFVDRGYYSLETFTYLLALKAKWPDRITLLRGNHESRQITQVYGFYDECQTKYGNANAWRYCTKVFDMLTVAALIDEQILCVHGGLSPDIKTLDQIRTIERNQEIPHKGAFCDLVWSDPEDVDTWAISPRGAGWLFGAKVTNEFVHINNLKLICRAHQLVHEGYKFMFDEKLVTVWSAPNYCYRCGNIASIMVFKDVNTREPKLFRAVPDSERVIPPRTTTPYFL
UniProt P04350, whole entry: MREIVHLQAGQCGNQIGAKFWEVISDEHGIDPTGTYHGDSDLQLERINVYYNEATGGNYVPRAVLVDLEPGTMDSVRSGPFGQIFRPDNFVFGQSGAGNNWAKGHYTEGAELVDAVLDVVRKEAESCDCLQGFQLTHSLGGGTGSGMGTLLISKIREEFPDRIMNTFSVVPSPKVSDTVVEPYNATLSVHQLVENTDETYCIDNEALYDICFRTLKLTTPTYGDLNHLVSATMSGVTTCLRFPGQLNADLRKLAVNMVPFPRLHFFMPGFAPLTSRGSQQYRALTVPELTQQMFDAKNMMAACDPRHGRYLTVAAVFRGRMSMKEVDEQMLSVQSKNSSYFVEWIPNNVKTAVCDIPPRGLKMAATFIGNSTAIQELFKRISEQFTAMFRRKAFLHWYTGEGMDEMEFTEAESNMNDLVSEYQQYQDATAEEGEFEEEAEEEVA
UniProt O15541: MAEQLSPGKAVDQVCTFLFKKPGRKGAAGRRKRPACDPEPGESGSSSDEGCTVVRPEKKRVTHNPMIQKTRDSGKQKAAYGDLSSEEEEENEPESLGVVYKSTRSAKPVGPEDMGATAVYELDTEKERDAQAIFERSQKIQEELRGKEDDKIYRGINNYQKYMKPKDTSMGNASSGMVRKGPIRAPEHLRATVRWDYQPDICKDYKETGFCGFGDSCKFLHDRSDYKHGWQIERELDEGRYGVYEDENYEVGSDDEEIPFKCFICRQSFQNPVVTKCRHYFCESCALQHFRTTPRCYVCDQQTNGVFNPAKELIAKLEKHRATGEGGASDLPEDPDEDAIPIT
UniProt O14646: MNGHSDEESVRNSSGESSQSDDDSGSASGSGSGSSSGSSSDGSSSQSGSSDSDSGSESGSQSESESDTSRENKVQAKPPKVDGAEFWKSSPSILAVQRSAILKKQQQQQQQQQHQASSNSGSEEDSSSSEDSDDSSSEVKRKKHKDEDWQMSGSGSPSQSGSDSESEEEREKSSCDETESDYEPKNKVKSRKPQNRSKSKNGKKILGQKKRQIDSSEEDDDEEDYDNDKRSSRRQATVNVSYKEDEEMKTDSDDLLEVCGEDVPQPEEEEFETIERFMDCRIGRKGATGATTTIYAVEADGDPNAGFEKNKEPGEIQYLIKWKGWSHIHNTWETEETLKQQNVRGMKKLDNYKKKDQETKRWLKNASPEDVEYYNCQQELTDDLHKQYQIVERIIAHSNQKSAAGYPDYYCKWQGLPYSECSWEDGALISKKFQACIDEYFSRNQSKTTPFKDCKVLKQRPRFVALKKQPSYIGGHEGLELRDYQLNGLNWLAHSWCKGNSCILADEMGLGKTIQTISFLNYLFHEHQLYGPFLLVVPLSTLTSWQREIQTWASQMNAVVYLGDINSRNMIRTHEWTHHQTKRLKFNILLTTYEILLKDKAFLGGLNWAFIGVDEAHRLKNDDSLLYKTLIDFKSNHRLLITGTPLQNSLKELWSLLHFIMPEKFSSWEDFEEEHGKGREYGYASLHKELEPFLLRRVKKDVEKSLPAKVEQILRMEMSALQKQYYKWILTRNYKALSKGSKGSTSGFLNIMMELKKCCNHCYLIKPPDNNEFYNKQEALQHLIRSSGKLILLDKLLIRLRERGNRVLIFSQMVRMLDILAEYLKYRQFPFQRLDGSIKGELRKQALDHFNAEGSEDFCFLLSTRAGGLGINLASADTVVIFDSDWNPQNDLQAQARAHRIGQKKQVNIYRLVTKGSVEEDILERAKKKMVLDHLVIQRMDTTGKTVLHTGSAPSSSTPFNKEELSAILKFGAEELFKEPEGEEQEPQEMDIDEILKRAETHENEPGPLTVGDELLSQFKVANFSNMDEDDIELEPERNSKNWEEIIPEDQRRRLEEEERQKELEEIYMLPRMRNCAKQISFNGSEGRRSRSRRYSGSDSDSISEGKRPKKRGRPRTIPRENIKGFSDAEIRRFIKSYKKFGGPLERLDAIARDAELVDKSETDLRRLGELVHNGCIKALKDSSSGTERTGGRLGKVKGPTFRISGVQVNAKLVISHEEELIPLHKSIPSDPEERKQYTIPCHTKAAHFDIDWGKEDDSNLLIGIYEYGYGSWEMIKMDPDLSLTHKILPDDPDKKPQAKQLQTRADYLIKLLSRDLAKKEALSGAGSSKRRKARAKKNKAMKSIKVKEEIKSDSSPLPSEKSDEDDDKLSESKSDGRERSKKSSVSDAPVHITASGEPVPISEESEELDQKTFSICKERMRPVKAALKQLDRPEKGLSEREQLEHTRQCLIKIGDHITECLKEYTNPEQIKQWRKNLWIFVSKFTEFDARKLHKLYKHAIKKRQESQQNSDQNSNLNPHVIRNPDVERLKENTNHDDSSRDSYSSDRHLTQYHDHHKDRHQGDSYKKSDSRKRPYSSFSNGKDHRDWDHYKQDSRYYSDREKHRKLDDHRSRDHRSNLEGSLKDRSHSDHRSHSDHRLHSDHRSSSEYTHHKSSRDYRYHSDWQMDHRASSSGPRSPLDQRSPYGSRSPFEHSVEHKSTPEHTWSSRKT
UniProt O15160, whole entry: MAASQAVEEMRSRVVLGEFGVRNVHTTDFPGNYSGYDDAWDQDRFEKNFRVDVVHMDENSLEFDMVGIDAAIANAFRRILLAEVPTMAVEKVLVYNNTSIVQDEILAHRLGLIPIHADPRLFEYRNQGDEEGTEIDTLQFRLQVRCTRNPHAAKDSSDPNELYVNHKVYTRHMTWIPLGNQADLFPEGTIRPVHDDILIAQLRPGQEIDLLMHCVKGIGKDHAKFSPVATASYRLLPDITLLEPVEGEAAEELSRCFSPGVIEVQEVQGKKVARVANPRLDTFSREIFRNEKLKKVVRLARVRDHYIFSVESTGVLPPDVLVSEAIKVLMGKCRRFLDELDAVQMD
UniProt O00165, whole entry: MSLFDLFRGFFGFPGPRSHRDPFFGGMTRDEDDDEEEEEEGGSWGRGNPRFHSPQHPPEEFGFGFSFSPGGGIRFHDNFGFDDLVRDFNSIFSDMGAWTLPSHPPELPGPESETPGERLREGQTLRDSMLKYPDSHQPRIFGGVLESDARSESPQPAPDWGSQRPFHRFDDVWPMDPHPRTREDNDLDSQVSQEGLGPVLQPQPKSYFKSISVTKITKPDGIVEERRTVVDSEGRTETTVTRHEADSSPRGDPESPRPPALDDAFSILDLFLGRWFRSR
UniProt O43829: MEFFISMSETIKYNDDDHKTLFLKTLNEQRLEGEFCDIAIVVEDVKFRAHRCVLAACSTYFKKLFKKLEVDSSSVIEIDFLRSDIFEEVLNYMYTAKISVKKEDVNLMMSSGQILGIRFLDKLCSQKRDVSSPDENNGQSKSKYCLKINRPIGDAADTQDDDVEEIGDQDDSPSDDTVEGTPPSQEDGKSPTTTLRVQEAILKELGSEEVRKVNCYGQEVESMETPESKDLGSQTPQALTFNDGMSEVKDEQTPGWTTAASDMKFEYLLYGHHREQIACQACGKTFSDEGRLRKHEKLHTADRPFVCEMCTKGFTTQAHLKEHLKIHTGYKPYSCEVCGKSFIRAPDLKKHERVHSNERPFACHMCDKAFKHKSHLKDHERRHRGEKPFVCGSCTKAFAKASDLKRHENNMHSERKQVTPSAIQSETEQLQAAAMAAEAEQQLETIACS

Compound: Nc1nc2c(ncn2[C@@H]2O[C@H](COP(=O)(O)OP(=O)(O)OP(=O)(O)O)[C@@H](O)[C@H]2O)c(=O)[nH]1 [guanosine triphosphate]
Assay: NP40-soluble protein abundance relative to vehicle (solubility fold change) (ratio); higher = more soluble protein in presence of GTP
Procedure, shortened: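 Across three independent experiments, values are fold changes against the detergent-processed vehicle for each replicate, based on vsn-normalised intensities. The samples were Jurkat crude lysate treated with eight concentrations (0.1 to 10 mM) for 10 min at room temperature and then 3 min at 37 °C. Lysate was solubilised with 0.8% NP40 and benzonase, ultracentrifuged, and the supernatant analysed by TMT-labelled LC-MS/MS.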

| Target | NP40-soluble protein abundance (concentration: 0.1mM) | NP40-soluble protein abundance (concentration: 0.5mM) | NP40-soluble protein abundance (concentration: 1mM) | NP40-soluble protein abundance (concentration: 2mM) | NP40-soluble protein abundance (concentration: 4mM) | NP40-soluble protein abundance (concentration: 6mM) | NP40-soluble protein abundance (concentration: 8mM) | NP40-soluble protein abundance (concentration: 10mM) |
| --- | --- | --- | --- | --- | --- | --- | --- | --- |
| ACTN4 (UniProt O43707) | 0.926 ± 0.041 | 0.962 ± 0.061 | 0.923 ± 0.076 | 0.875 ± 0.085 | 0.92 ± 0.11 | 1.01 ± 0.13 | 1.03 ± 0.13 | 1.03 ± 0.15 |
| ARPC1B (UniProt O15143) | 1 ± 0.045 | 1.04 ± 0.056 | 0.933 ± 0.034 | 0.942 ± 0.062 | 0.928 ± 0.056 | 0.948 ± 0.04 | 0.923 ± 0.017 | 0.887 ± 0.012 |
| ZBTB24 (UniProt O43167) | 1.09 ± 0.18 | 1.09 ± 0.2 | 1.02 ± 0.21 | 1.05 ± 0.2 | 1.06 ± 0.24 | 0.976 ± 0.11 | 1 ± 0.053 | 1.08 ± 0.14 |
| PRAF2 (UniProt O60831) | 0.97 ± 0.017 | 0.952 ± 0.055 | 0.87 ± 0.048 | 0.881 ± 0.035 | 0.889 ± 0.047 | 0.864 ± 0.042 | 0.845 ± 0.14 | 0.87 ± 0.093 |
| UniProt O15379 and related entries | 1.11 ± 0.11 | 1.09 ± 0.19 | 1.12 ± 0.12 | 1.07 ± 0.17 | 1.16 ± 0.16 | 1.11 ± 0.19 | 1.14 ± 0.19 | 1.07 ± 0.21 |
| UniProt O00743 and related entries | 1.07 ± 0.13 | 1.09 ± 0.13 | 0.945 ± 0.1 | 0.979 ± 0.19 | 0.979 ± 0.15 | 0.955 ± 0.13 | 0.916 ± 0.097 | 0.888 ± 0.13 |
| M0QYM7 and related entries (UniProt P04350) | 0.947 ± 0.081 | 0.966 ± 0.088 | 0.966 ± 0.082 | 0.976 ± 0.077 | 0.938 ± 0.092 | 0.927 ± 0.074 | 0.911 ± 0.088 | 0.941 ± 0.079 |
| RNF113A (UniProt O15541) | 0.967 ± 0.028 | 1 ± 0.051 | 0.998 ± 0.029 | 0.947 ± 0.072 | 0.928 ± 0.07 | 0.92 ± 0.066 | 0.899 ± 0.023 | 0.941 ± 0.077 |
| UniProt O14646 and related entries | 1 ± 0.041 | 0.968 ± 0.067 | 0.97 ± 0.14 | 1.03 ± 0.13 | 1.08 ± 0.12 | 1.16 ± 0.14 | 1.22 ± 0.12 | 1.41 ± 0.074 |
| POLR1C (UniProt O15160) | 1 ± 0.056 | 1.03 ± 0.035 | 0.971 ± 0.028 | 1.01 ± 0.024 | 1.07 ± 0.081 | 1.04 ± 0.083 | 1.04 ± 0.058 | 1.02 ± 0.03 |
| UniProt O00165-5 | 1.06 ± 0.055 | 1.12 ± 0.04 | 1.14 ± 0.088 | 1.17 ± 0.055 | 1.18 ± 0.098 | 1.16 ± 0.08 | 1.2 ± 0.14 | 1.17 ± 0.12 |
| UniProt O43439 and related entries | 1.13 ± 0.016 | 1.03 ± 0.047 | 1.09 ± 0.055 | 1.02 ± 0.055 | 1.11 ± 0.079 | 1.08 ± 0.068 | 1.12 ± 0.097 | 1.12 ± 0.043 |
| UniProt O43829 | 0.98 ± 0.19 | 0.981 ± 0.074 | 1.02 ± 0.17 | 0.986 ± 0.091 | 0.945 ± 0.19 | 0.949 ± 0.067 | 1.13 ± 0.12 | 1.08 ± 0.067 |
| SART1 (UniProt O43290) | 0.976 ± 0.045 | 1.05 ± 0.053 | 1.13 ± 0.07 | 1.17 ± 0.11 | 1.28 ± 0.16 | 1.37 ± 0.17 | 1.46 ± 0.27 | 1.54 ± 0.32 |

Copied from the results shown for reference:

| Target | NP40-soluble protein abundance (concentration: 0.1mM) | NP40-soluble protein abundance (concentration: 0.5mM) | NP40-soluble protein abundance (concentration: 1mM) | NP40-soluble protein abundance (concentration: 2mM) | NP40-soluble protein abundance (concentration: 4mM) | NP40-soluble protein abundance (concentration: 6mM) | NP40-soluble protein abundance (concentration: 8mM) | NP40-soluble protein abundance (concentration: 10mM) |
| --- | --- | --- | --- | --- | --- | --- | --- | --- |
| UniProt O00165-5 | 1.06 ± 0.055 | 1.12 ± 0.04 | 1.14 ± 0.088 | 1.17 ± 0.055 | 1.18 ± 0.098 | 1.16 ± 0.08 | 1.2 ± 0.14 | 1.17 ± 0.12 |
| UniProt O43439 and related entries | 1.13 ± 0.016 | 1.03 ± 0.047 | 1.09 ± 0.055 | 1.02 ± 0.055 | 1.11 ± 0.079 | 1.08 ± 0.068 | 1.12 ± 0.097 | 1.12 ± 0.043 |
